In series [1] the target is T1, eGis2-TAP (Saccharomyces cerevisiae (BY4741 background)) (UniProt P53849).
T1 sequence (looked up): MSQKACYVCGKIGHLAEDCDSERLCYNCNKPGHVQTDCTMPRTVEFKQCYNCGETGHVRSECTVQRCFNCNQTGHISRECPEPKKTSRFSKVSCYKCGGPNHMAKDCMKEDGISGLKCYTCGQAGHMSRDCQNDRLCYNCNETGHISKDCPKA
The experiment in a line: pull-down. The note with it: Biotin-RNA pull-down on streptavidin beads with immunoblot read-out, protein in an extract, residues 1-153, protein details: C-terminal TAP.

Chains of the proteins cited; added tags and fusions are not shown. Chains listed by the source or under a name are the forms on record and can include a tag or linker.
eZNF9-TAP (Homo sapiens), one chain, as listed by the source: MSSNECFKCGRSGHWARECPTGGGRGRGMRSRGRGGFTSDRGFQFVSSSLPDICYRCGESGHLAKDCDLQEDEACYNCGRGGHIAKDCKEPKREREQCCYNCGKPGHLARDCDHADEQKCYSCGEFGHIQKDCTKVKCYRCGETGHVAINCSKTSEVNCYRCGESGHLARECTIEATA

Series [2] concerns the target T2, pGis2-His (Saccharomyces cerevisiae) (UniProt P53849).
T2 sequence (looked up): T1 sequence (looked up)
The experiment in a line: pull-down. The note with it: Biotin-RNA pull-down on streptavidin beads with immunoblot read-out, recombinant protein, residues 1-153, protein details: His6 (pDEST-17).

Series [3] relates to eZNF9-TAP (Homo sapiens). The experiment in a line: pull-down. The note with it: Biotin-RNA pull-down on streptavidin beads with immunoblot read-out, protein in a lysate after overexpression, residues 1-178, protein details: TAP (pBG1805).
Series [4] has as its system pZNF9-His (Homo sapiens). The experiment in a line: pull-down. The note with it: Biotin-RNA pull-down on streptavidin beads with immunoblot read-out, recombinant protein, residues 1-178, protein details: His6 (pDEST-17).
Series [5] addresses T1, eGis2-TAP (Saccharomyces cerevisiae (BY4741 background)). The experiment in a line: competition with a labelled probe. The note with it: protein in an extract, residues 1-153, protein details: C-terminal TAP.
The subject of series [6] is eZNF9-TAP (Homo sapiens). The experiment in a line: competition with a labelled probe. The note with it: 10-fold excess vs biotin MYH4 RNA, ZNF9 preparation not specified; protein in a lysate after overexpression; residues 1-178; protein details: TAP (pBG1805); label: biotin (unlabeled as competitor).
The mark [7] stands for this setting: almost abrogated, label: biotin (unlabeled as competitor).
Setting [8] is: 10-fold excess vs biotin (GAUGAA)5, weak to moderate, label: biotin (unlabeled as competitor).
The mark [9] stands for this setting: 10-fold excess vs biotin (GAUGAA)5 RNA, moderate, label: none (competitor), single-stranded DNA.
Setting [10] is: label: biotin (unlabeled as competitor).

For some assays here: A negative result means that nothing was seen under these conditions. At least one verdict was read from the data and is not stated in words by the source. For some assays here: Where a protein sequence is shown, tags need not be part of it. For some assays here: At least one result comes from cells or an extract, where the contact may be indirect. For at least one entry, the source does not settle the construct or the ends of the probe. For some assays here: Weaker means in comparison with the reference protein, sequence or condition of that experiment.

On to “GAUGCUGAUGCUGAUGCUGAUGCUGAUGCU [(GAUGCU)5]”, for which the binding result in series [1] (setting [7]), in series [2] (setting [7]), in series [3] (setting [7]), in series [4] (setting [7]) and in series [5] (setting [8]) was “binds more weakly” throughout.
Consider “GTGGTGGTGGTGGTGGTGGTGGTGGTGGTG [(GTGGTG)5 DNA]”, for which the binding result is on record as “binds” in series [1] (data not shown, Gis2 preparation not specified, label: none (competitor) or biotin (direct pull-down), single-stranded DNA) and “binds” in series [5] (10-fold excess vs biotin (GAUGAA)5 RNA, strong, label: none (competitor) or biotin (direct pull-down), single-stranded DNA).
As to “GUUGUUGUUGUUGUUGUUGUUGUUGUUGUU [(GUUGUU)5]”, the binding result in series [1] (label: biotin), in series [2] (label: biotin), in series [3] (label: biotin) and in series [4] (label: biotin) was “binds” each time.
As for “GUGGUGGUGGUGGUGGUGGUGGUGGUGGUG [(GUGGUG)5]”, the binding result in series [1] (setting [7]), in series [2] (setting [7]), in series [3] (setting [7]), in series [4] (setting [7]) and in series [5] (setting [8]) was “binds more weakly” each time.
Regarding “GAUGUUGAUGUUGAUGUUGAUGUUGAUGUU [(GAUGUU)5]”, the binding result in series [1] (label: biotin), in series [2] (label: biotin), in series [3] (label: biotin) and in series [4] (label: biotin) was “binds” throughout.
With “GTTGTTGTTGTTGTTGTTGTTGTTGTTGTT [(GTTGTT)5 DNA]”, in series [5] (setting [9]), the binding result is “binds more weakly”.
As for “GACGACGACGACGACGACGACGACGACGAC [(GACGAC)5]”, the binding result in series [1] (Gis2 preparation not specified, label: biotin) is “binds more weakly”; in series [3] (ZNF9 preparation not specified, label: biotin), “binds more weakly”.
In the case of “GATGTTGATGTTGATGTTGATGTTGATGTT [(GATGTT)5 DNA]”, the binding result in series [5] (setting [9]) is “binds more weakly”.
On to “GAUGAAGAUGAAGAUGAAGAUGAAGAUGAA [(GAUGAA)5]”, for which the binding result was “binds” in series [1] (setting [10]); “binds” in series [2] (setting [10]); “binds” in series [3] (setting [10]); “binds” in series [4] (setting [10]); “binds” in series [5] (10-fold excess vs biotin (GAUGAA)5, strong, Gis2 preparation not specified, label: biotin (unlabeled as competitor)); “binds” in series [6].
For the sequence “GAUUAAGAUUAAGAUUAAGAUUAAGAUUAA [(GAUUAA)5]”, the binding result in series [1] (label: biotin), in series [2] (label: biotin), in series [3] (label: biotin) and in series [4] (label: biotin) was “no binding” throughout.
With “GATGAAGATGAAGATGAAGATGAAGATGAA [(GATGAA)5 DNA]”, the binding result in series [5] (setting [9]) was “binds more weakly”.

(Values after PMC3091301.)
